From the supplement of paper PMC12889115 come the findings set out here.

This experiment concerns Salmonella enterica serovar Typhimurium SL1344. Description: bacterial growth OD600 after 18 h with compound and polymyxin B; higher = more bacterial growth (less inhibition). The conditions noted are these: 50 µM, Mueller-Hinton broth.

The other results are listed elsewhere or left out. Values are raw readings; no control value is given beside them.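 In the initial screen, polymyxin B was used at a concentration that permeabilizes Salmonella's outer membrane but not its inner membrane. Maximum growth was set by DMSO wells with or without polymyxin B. Since plates varied, data were ranked per plate, and compounds giving the lowest OD600 advanced as hits.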

As for `O=C(NCCN1Cc2ccccc2OC(c2ccccc2F)C1)C(c1cccnc1)N1CCOCC1` (centres undefined), the “bacterial growth OD600” value (polymyxin B 0.75 µg/mL) is 0.805.
With `Cc1ccc(S(=O)(=O)N2CCC(CCC(=O)N(C)Cc3ccccc3)CC2)s1`, the “bacterial growth OD600” value (polymyxin B 1 µg/mL) came to 0.808.
For `COc1ccccc1C(=O)N1CCN(Cc2nc(-c3ccoc3)oc2C)CC1`, the “bacterial growth OD600” value (polymyxin B 0.75 µg/mL) stood at 0.789.
On to `CCCNC(=O)N1CCC2(CCCN(Cc3cc(OC)ccc3F)C2=O)C1` (centres undefined), for which the “bacterial growth OD600” value (polymyxin B 1 µg/mL) was 0.894.
As to `COCCN1CCCC(CNc2nc3nonc3nc2N2CCSCC2)C1` (centres undefined), the “bacterial growth OD600” value (polymyxin B 0.75 µg/mL) is 0.809.
Take `OC1CCN([C@@H]2CCN(Cc3ccccc3C#Cc3ccccc3)C[C@H]2O)CC1`: the “bacterial growth OD600” value (polymyxin B 1 µg/mL) was 1.13.
On the same count and under the same terms, the value for `Cc1ccccc1CC1(CO)CCCN(C(=O)c2ccccc2Cl)C1` (centres undefined) was 0.532; that for `Cn1cc(CN2CCCC(C(N)=O)C2)c(-c2ccc(Oc3ccccc3)cc2)n1` (centres undefined) was 0.847.
As for `O=C(CCN1Cc2ccccc2OC(c2ccccc2)C1)NCC1(N2CCOCC2)CCCC1` (centres undefined), under “polymyxin B 0.75 µg/mL”, the “bacterial growth OD600” value stood at 0.888.
